# Data from the supplement of paper PMC4256282, “Profound Activity of the Anti-cancer Drug Bortezomib against Echinococcus multilocularis Metacestodes Identifies the Proteasome as a Novel Drug Target for Cestodes” (PLoS Neglected Tropical Diseases, 2014).
# Structures can show the parent of a compound that is named as a salt. This is one part of the list. Many values rest on one well or one pass, so single values are uncertain.
# Test system: Echinococcus multilocularis metacestodes
# Test: vesicle damage (PGI release) relative to positive control DB1127 at 20 µM, DMSO subtracted; higher = more parasite damage
# Details: treatment time 5 days
row,SMILES,vesicle damage [%]
1,CN1CC(=O)N2[C@H](c3ccc4c(c3)OCO4)c3[nH]c4ccccc4c3C[C@@H]2C1=O [Tadalafil],2.67
2,Cc1nc2n(c(=O)c1CCN1CCC(c3noc4cc(F)ccc34)CC1)CCCC2O (stereo not drawn) [Paliperidone],-10.7
3,CC=CC1=C(C(=O)O)N2C(=O)[C@@H](NC(=O)[C@H](N)c3ccc(O)cc3)[C@H]2SC1 [Cefprozil hydrate],-0.347
4,COc1cc([C@@H]2c3cc4c(cc3[C@@H](O[C@@H]3O[C@@H]5CO[C@@H](C)O[C@H]5[C@H](O)[C@H]3O)[C@H]3COC(=O)[C@H]23)OCO4)cc(OC)c1O [Etoposide],-1.1
5,CCCCCCCCCCC[C@@H](C[C@@H]1OC(=O)[C@H]1CCCCCC)OC(=O)[C@H](CC(C)C)NC=O [Orlistat],-1.82
6,Nc1ccn([C@H]2CC[C@@H](CO)O2)c(=O)n1 [Zalcitabine],-11.4
7,COc1cc2nc(N(C)CCCNC(=O)C3CCCO3)nc(N)c2cc1OC (stereo not drawn) [Alfuzosin HCL],-2.66
8,[I-].[K+] [Potassium iodide],-6.74
9,CS(=O)(=O)OCCCCOS(C)(=O)=O [Busulfan],-1.6
10,C[C@]12C=CC(=O)N[C@@H]1CC[C@@H]1[C@@H]2CC[C@]2(C)[C@@H](C(=O)Nc3cc(C(F)(F)F)ccc3C(F)(F)F)CC[C@@H]12 [Dutasteride],-5
11,O=C1NC(=O)C(c2ccccc2)(c2ccccc2)N1 [Phenytoin],0.483
12,CCc1cc(C(N)=S)ccn1 [Ethionamide],-8.97
13,Cc1cnc(C(=O)O)c[n+]1[O-] [Acipimox],-14.9
14,Clc1ccccc1C(c1ccccc1)(c1ccccc1)n1ccnc1 [Clotrimazole],0.909
15,CCC(C)(C)c1ccc(CC(C)CN2C[C@@H](C)O[C@@H](C)C2)cc1 (stereo partly drawn) [Amorolfine Hydrochloride],2.25
16,CN(CCOc1ccc(CC2SC(=O)NC2=O)cc1)c1ccccn1 (stereo not drawn) [Rosiglitazone maleate],1.05
17,COc1ccc2c(c1)c(CC(=O)O)c(C)n2C(=O)c1ccc(Cl)cc1 [Indomethacin],-15.1
18,CN(N=O)C(=O)N[C@@H](C=O)[C@@H](O)[C@H](O)[C@H](O)CO [Streptozotocin],2.85
19,Nc1ncn([C@H]2C[C@H](O)[C@@H](CO)O2)c(=O)n1 [Decitabine],0.352
20,COC[C@@H](c1ccc(C(F)(F)F)cc1)N1CCN(C2(C)CCN(C(=O)c3c(C)ncnc3C)CC2)C[C@@H]1C [Vicriviroc Malate],-0.346
21,C[C@H]1[C@H](NC(=O)/C(=N\OC(C)(C)C(=O)O)c2csc(N)n2)C(=O)N1S(=O)(=O)O [Aztreonam],-4.08
22,CCCCC1C(=O)N(c2ccccc2)N(c2ccccc2)C1=O [Phenylbutazone],-0.148
23,CCN(CC)CCNC(=O)c1c(C)[nH]c(/C=C2\C(=O)Nc3ccc(F)cc32)c1C [Sunitinib Malate],3.13
24,O=NN(CCCl)C(=O)NC1CCCCC1 [Lomustine],-9.19
25,O=c1n(CCCN2CCN(c3cccc(Cl)c3)CC2)nc2ccccn12 [Trazodone hydrochloride],2.01
26,Cc1ccc(NC(=O)c2ccc(CN3CCN(C)CC3)cc2)cc1Nc1nc(-c2cccnc2)cs1 [Masitinib],-3.53
27,N[C@@H](CSCCCO)C(=O)O [Fudosteine],1.07
28,CC1=C(/C=C/C(C)=C/C=C/C(C)=C/C(=O)O)C(C)(C)CCC1 [Tretinoin],-0.444

# An excerpt from above in order of formula weight, ascending.
row,SMILES,vesicle damage [%]
9,CS(=O)(=O)OCCCCOS(C)(=O)=O [Busulfan],-1.6
15,CCC(C)(C)c1ccc(CC(C)CN2C[C@@H](C)O[C@@H](C)C2)cc1 (stereo partly drawn) [Amorolfine Hydrochloride],2.25
2,Cc1nc2n(c(=O)c1CCN1CCC(c3noc4cc(F)ccc34)CC1)CCCC2O (stereo not drawn) [Paliperidone],-10.7
